Data source: PubChem BioAssay AID1159578 (Peter MacCallum Cancer Centre, 2015)
Screen: 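Knock-downs that alter how fast lymphatic endothelial cells migrate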 (primary screen). Cells: human lymphatic endothelial cells. Reagents: siRNA pool against human genes, 40 nM. Duration: 48 h after transfection. Read-out: 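High-content imaging of dye-stained cells in a scratch assay measures filled wound area and nuclei per well; duplicate means given as ratio to mock and robust z-score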. Scale: migration robust z-score: higher = faster migration into the scratch; migration relative to mock: higher = more scratch area covered than mock; nuclei per well: higher = more cells in the well. Call rule: 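Migration changed when robust z exceeds 2 or falls below -2 and mean nuclei number is at least 3300; otherwise not called changed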. Meaning of the calls: active = migration changed; inactive = no migration change, or too few cells.
In all, the deposit lists about 18,000 reagents; below is a part drawn at random. In the full data, about 1,030 (5.7%) got an active call. 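Inactive calls also include pools with fewer than 3300 nuclei, whose migration was not assessed.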 Raw values are not corrected between plates.

gene | migration robust z-score | migration class with cell-count check | migration relative to mock | nuclei per well, duplicate mean | Call
C1orf53 (GeneID 388722) | -0.2 | migration z between -2 and 2; enough cells | 0.83 | 5544 | inactive
LYVE1 (GeneID 10894) | -3.49 | migration z below -2; enough cells | -0.02 | 3832 | active
NRBP1 (GeneID 29959) | 0.6 | migration z between -2 and 2; enough cells | 0.92 | 5578 | inactive
SPINDOC (GeneID 144097) | -1.07 | migration z between -2 and 2; enough cells | 0.6 | 4760 | inactive
H2AC20 (GeneID 8338) | 0.7 | migration z between -2 and 2; enough cells | 1.06 | 6278 | inactive
OR5L1 (GeneID 219437) | 2.7 | migration z above 2; enough cells | 1.58 | 6494 | active
LGALS9B (GeneID 284194) | 1.25 | migration z between -2 and 2; enough cells | 1.21 | 5928 | inactive
IFI44 (GeneID 10561) | 0.64 | migration z between -2 and 2; enough cells | 1.05 | 6824 | inactive
GKN2 (GeneID 200504) | -0.48 | migration z between -2 and 2; enough cells | 0.76 | 5684 | inactive
FTHL17 (GeneID 53940) | -0.66 | migration z between -2 and 2; enough cells | 0.72 | 5109 | inactive
USP13 (GeneID 8975) | 0.76 | migration z between -2 and 2; enough cells | 0.95 | 5618 | inactive
MBLAC2 (GeneID 153364) | 0.5 | migration z between -2 and 2; enough cells | 1.02 | 6618 | inactive
MS4A10 (GeneID 341116) | -0.24 | migration z between -2 and 2; enough cells | 0.82 | 6476 | inactive
TEX10 (GeneID 54881) | 0.52 | migration z between -2 and 2; enough cells | 1.02 | 5013 | inactive
HPS1 (GeneID 3257) | 1.5 | migration z between -2 and 2; enough cells | 1.27 | 5494 | inactive
MEF2D (GeneID 4209) | -0.28 | migration z between -2 and 2; enough cells | 0.75 | 4720 | inactive
GDNF (GeneID 2668) | 0.58 | migration z between -2 and 2; enough cells | 1.04 | 5486 | inactive
GAD2 (GeneID 2572) | -0.99 | migration z between -2 and 2; enough cells | 0.62 | 5302 | inactive
GBF1 (GeneID 8729) | -0.34 | migration z between -2 and 2; enough cells | 0.8 | 6380 | inactive
SFRP5 (GeneID 6425) | 0.75 | migration z between -2 and 2; enough cells | 0.95 | 5636 | inactive
SLC11A1 (GeneID 6556) | 0.24 | migration z between -2 and 2; enough cells | 0.85 | 5582 | inactive
HAPLN1 (GeneID 1404) | -0.41 | migration z between -2 and 2; enough cells | 0.78 | 6228 | inactive
SBNO2 (GeneID 22904) | -0.62 | migration z between -2 and 2; enough cells | 0.72 | 6439 | inactive
LTAP1 (GeneID 25912) | 0.29 | migration z between -2 and 2; enough cells | 0.96 | 5505 | inactive
MORN5 (GeneID 254956) | 0.71 | migration z between -2 and 2; enough cells | 1.07 | 5106 | inactive
CHN2 (GeneID 1124) | 0.91 | migration z between -2 and 2; enough cells | 1.12 | 5584 | inactive
PPWD1 (GeneID 23398) | 0.24 | migration z between -2 and 2; enough cells | 0.85 | 6734 | inactive
SLCO2B1 (GeneID 11309) | -0.96 | migration z between -2 and 2; enough cells | 0.62 | 5236 | inactive
CTTN (GeneID 2017) | -0.66 | migration z between -2 and 2; enough cells | 0.72 | 5288 | inactive
ALDH1L2 (GeneID 160428) | -3.68 | under 3300 nuclei; migration not judged | 0.1 | 3004 | inactive
MLXIPL (GeneID 51085) | 0 | migration z between -2 and 2; enough cells | 0.8 | 5776 | inactive
HELB (GeneID 92797) | 1.14 | migration z between -2 and 2; enough cells | 1.02 | 6272 | inactive
CD7 (GeneID 924) | -0.76 | migration z between -2 and 2; enough cells | 0.68 | 5692 | inactive
RASGRP3 (GeneID 25780) | -0.92 | migration z between -2 and 2; enough cells | 0.64 | 5854 | inactive
CNTNAP4 (GeneID 85445) | 0.16 | migration z between -2 and 2; enough cells | 0.92 | 6356 | inactive
LINC00207 (GeneID 388910) | 0.72 | migration z between -2 and 2; enough cells | 1.07 | 6814 | inactive
OR5M11 (GeneID 219487) | 1.88 | migration z between -2 and 2; enough cells | 1.37 | 6683 | inactive
GAK (GeneID 2580) | 0.16 | migration z between -2 and 2; enough cells | 0.84 | 5198 | inactive
TMEM39B (GeneID 55116) | 1.05 | migration z between -2 and 2; enough cells | 1.16 | 6168 | inactive

7 entries from above in another layout.
{"gene": "IFI44 (GeneID 10561)", "migration robust z-score": 0.64, "migration class with cell-count check": "migration z between -2 and 2; enough cells", "migration relative to mock": 1.05, "nuclei per well, duplicate mean": 6824, "Call": "inactive"}
{"gene": "GKN2 (GeneID 200504)", "migration robust z-score": -0.48, "migration class with cell-count check": "migration z between -2 and 2; enough cells", "migration relative to mock": 0.76, "nuclei per well, duplicate mean": 5684, "Call": "inactive"}
{"gene": "FTHL17 (GeneID 53940)", "migration robust z-score": -0.66, "migration class with cell-count check": "migration z between -2 and 2; enough cells", "migration relative to mock": 0.72, "nuclei per well, duplicate mean": 5109, "Call": "inactive"}
{"gene": "USP13 (GeneID 8975)", "migration robust z-score": 0.76, "migration class with cell-count check": "migration z between -2 and 2; enough cells", "migration relative to mock": 0.95, "nuclei per well, duplicate mean": 5618, "Call": "inactive"}
{"gene": "MBLAC2 (GeneID 153364)", "migration robust z-score": 0.5, "migration class with cell-count check": "migration z between -2 and 2; enough cells", "migration relative to mock": 1.02, "nuclei per well, duplicate mean": 6618, "Call": "inactive"}
{"gene": "MS4A10 (GeneID 341116)", "migration robust z-score": -0.24, "migration class with cell-count check": "migration z between -2 and 2; enough cells", "migration relative to mock": 0.82, "nuclei per well, duplicate mean": 6476, "Call": "inactive"}
{"gene": "TEX10 (GeneID 54881)", "migration robust z-score": 0.52, "migration class with cell-count check": "migration z between -2 and 2; enough cells", "migration relative to mock": 1.02, "nuclei per well, duplicate mean": 5013, "Call": "inactive"}
